Source: PubChem BioAssay AID1259291 (Sanger Institute, 2017)
This is one part, drawn at random, of 794 reagents tested. Of all reagents, 15 (1.9%) were called active. 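Calls rest on knock-down alone; drug synergy scores do not affect them; drugs added a day post-transfection, DMSO vehicle as comparison.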 No viability above 1 is reported: the scale is capped. No sequences are given here. The record does not give: the amount of reagent, the time to read-out.

- Purpose: 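Genes needed for HT29 colorectal cancer cell survival or for sensitivity to drugs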 (primary screen)
- System: HT29 human colorectal cancer cells
- Knock-down reagent: siRNA pool against human genes
- Treatment: anchor drugs added a day after transfection: BYL719 at 1 µM, cetuximab at 5 µg/ml or trametinib at 10 nM, or DMSO vehicle alone
- Measurement: 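Cell viability as a fraction of the non-targeting pool, mean of replicates, robust z-scores from control wells; synergy scores for BYL719 (1 µM), cetuximab (5 µg/ml), trametinib (10 nM)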
- Direction: robust z-score, knock-down alone and viability, knock-down alone: higher = more viable cells; synergy score with BYL719 and synergy score with cetuximab and synergy score with trametinib: higher = stronger synergistic killing with drug
- Call rule: 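Essential when the robust z-score for knock-down without any drug is below -3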
- Calls: active = essential (knock-down alone); inactive = no change alone

target gene	PubChem SID	robust z-score, knock-down alone	viability, knock-down alone (fraction of control)	synergy score with BYL719	synergy score with cetuximab	synergy score with trametinib	Outcome
TRIO (trio Rho guanine nucleotide exchange factor)	SID56478974	-0.426	0.939	-0.16	-0.0278	-0.0355	inactive
MAPK13 (mitogen-activated protein kinase 13)	SID56478704	-2.33	0.821	-0.165	-0.179	0.0192	inactive
PIK3R1 (phosphoinositide-3-kinase regulatory subunit 1)	SID135620606	0.552	1	-0.00249	0.00442	-0.0265	inactive
STK38 (serine/threonine kinase 38)	SID152149792	0.363	0.988	0.0474	-0.0118	0.0443	inactive
CDK13 (cyclin dependent kinase 13)	SID152148828	0.552	1	0.0898	0.00756	0.000142	inactive
AURKC (aurora kinase C)	SID152150186	0.552	1	0.0244	0.075	0.0285	inactive
BMAL1 (basic helix-loop-helix ARNT like 1)	SID134314841	-3.67	0.738	-0.0541	-0.213	-0.0708	active
ITPKC (inositol-trisphosphate 3-kinase C)	SID56479112	0.552	1	0.0998	0	-0.0955	inactive
BCKDK (branched chain keto acid dehydrogenase kinase)	SID135620909	0.552	1	-0.129	0.0168	0.174	inactive
STK17A (serine/threonine kinase 17a)	SID152148521	0.552	1	-0.00733	0	-0.0211	inactive
ITK (IL2 inducible T cell kinase)	SID135620623	-0.282	0.948	-0.0816	-0.00444	-0.0849	inactive
ARAF (A-Raf proto-oncogene, serine/threonine kinase)	SID152151166	0.29	0.984	-0.039	0.0738	0.0094	inactive
PRKCD (protein kinase C delta)	SID56478673	0.552	1	-0.0484	0.0539	0.0256	inactive
RTN4 (reticulon 4)	SID134315213	0.552	1	0.0829	0	-0.0804	inactive
PLK3 (polo like kinase 3)	SID56478615	0.552	1	-0.00935	0	-0.0205	inactive
MAP3K19 (mitogen-activated protein kinase kinase kinase 19)	SID135620896	0.552	1	0.0967	0.0195	-0.0156	inactive
NUP98 (nucleoporin 98 and 96 precursor)	SID152147776	-2.27	0.825	-0.173	-0.0388	-0.0472	inactive
AKAP9 (A-kinase anchoring protein 9)	SID134321301	0.552	1	0.0435	0.106	0.0233	inactive
MPP2 (MAGUK p55 scaffold protein 2)	SID152153278	0.552	1	0.0132	0	0.128	inactive

Ordered by “synergy score with cetuximab” (low to high): some entries from above
target gene	PubChem SID	robust z-score, knock-down alone	viability, knock-down alone (fraction of control)	synergy score with BYL719	synergy score with cetuximab	synergy score with trametinib	Outcome
MAPK13 (mitogen-activated protein kinase 13)	SID56478704	-2.33	0.821	-0.165	-0.179	0.0192	inactive
TRIO (trio Rho guanine nucleotide exchange factor)	SID56478974	-0.426	0.939	-0.16	-0.0278	-0.0355	inactive
STK38 (serine/threonine kinase 38)	SID152149792	0.363	0.988	0.0474	-0.0118	0.0443	inactive
PIK3R1 (phosphoinositide-3-kinase regulatory subunit 1)	SID135620606	0.552	1	-0.00249	0.00442	-0.0265	inactive

Continued:
target gene	PubChem SID	robust z-score, knock-down alone	viability, knock-down alone (fraction of control)	synergy score with BYL719	synergy score with cetuximab	synergy score with trametinib	Outcome
CKB (creatine kinase B)	SID56479084	0.148	0.975	-0.0892	0.0852	-0.0229	inactive
SRMS	SID56479047	-0.178	0.955	0.137	0.165	0.0552	inactive
ZC3H11A (zinc finger CCCH-type containing 11A)	SID135624155	0.323	0.986	0.00602	0.0882	-0.0584	inactive
AK4 (adenylate kinase 4)	SID152149659	0.552	1	-0.0425	0.0661	0.0892	inactive
AK2 (adenylate kinase 2)	SID56479162	0.552	1	-0.0389	0.0159	0.265	inactive
NPR2 (natriuretic peptide receptor 2)	SID152151652	0.552	1	0.0784	0	-0.0125	inactive
PKM (pyruvate kinase M1/2)	SID135621254	0.356	0.988	-0.112	-0.0123	-0.0579	inactive
CASP8 (caspase 8)	SID135620682	0.552	1	-0.03	0	-0.144	inactive
MAP4K5 (mitogen-activated protein kinase kinase kinase kinase 5)	SID56478702	0.552	1	0.078	0.108	0.0742	inactive
SRPK2 (SRSF protein kinase 2)	SID56478890	0.295	0.984	0.0551	-0.016	0.0531	inactive
MARK3 (microtubule affinity regulating kinase 3)	SID56478669	0.42	0.992	0.0836	-0.00826	0.0593	inactive
PDK3 (pyruvate dehydrogenase kinase 3)	SID152151041	0.552	1	-0.0354	0.0782	0.0874	inactive
TAB1 (TGF-beta activated kinase 1 (MAP3K7) binding protein 1)	SID135620883	-1.94	0.846	-0.178	-0.155	-0.0299	inactive
ETNK2 (ethanolamine kinase 2)	SID56478982	0.552	1	0.118	0.114	0.127	inactive
PRKG2 (protein kinase cGMP-dependent 2)	SID56478832	0.552	1	0.0198	0	0.133	inactive
